Measurements from paper PMC9192638, “Compact IF2 allows initiator tRNA accommodation into the P site and gates the ribosome to elongation” (Nature Communications, 2022).
Results are given in words; binding and its absence hold for the method and conditions named.

By UniProt entry, the sequences of proteins in these tests, tags left out.
UniProt Q9HV55: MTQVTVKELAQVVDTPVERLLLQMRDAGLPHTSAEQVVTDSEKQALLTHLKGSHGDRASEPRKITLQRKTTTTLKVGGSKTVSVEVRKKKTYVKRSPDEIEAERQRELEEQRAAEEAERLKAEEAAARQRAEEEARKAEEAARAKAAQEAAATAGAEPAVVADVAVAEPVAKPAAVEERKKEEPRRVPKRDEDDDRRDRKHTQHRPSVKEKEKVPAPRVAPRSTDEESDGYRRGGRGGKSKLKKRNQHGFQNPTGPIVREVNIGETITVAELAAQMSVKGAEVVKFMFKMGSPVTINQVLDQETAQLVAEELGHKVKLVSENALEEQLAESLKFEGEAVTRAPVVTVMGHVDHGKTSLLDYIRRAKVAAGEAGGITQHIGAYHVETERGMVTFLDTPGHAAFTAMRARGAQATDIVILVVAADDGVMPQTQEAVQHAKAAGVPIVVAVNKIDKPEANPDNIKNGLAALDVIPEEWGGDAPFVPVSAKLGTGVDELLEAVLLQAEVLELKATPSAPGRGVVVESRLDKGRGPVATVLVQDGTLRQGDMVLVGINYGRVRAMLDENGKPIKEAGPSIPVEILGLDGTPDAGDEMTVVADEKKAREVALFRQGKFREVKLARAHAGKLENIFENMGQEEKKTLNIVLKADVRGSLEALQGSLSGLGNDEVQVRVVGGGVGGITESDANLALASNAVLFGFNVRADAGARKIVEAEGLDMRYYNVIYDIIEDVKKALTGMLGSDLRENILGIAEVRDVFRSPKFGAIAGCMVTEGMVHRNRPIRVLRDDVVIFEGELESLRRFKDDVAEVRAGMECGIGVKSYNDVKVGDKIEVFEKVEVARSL

Target: T1, ribosomal protein uL6 (Pseudomonas aeruginosa PAO1 (endogenous in purified ribosomes)) (UniProt Q9HWF0)
T1 sequence: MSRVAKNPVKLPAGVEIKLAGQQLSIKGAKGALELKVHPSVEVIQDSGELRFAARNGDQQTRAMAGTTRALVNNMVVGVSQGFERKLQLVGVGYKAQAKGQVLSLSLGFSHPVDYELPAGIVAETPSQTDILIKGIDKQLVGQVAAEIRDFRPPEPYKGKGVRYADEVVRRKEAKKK
Assay: cryo-EM structure; non-rotated 70S-IC with compact IF2-GDP, structure I-A (30 S rotated by ~1.4 degrees); same sample as a1, sorted by 3D classification; both purified

binding: no binding
Substance: initiation factor 2 (IF2) from Pseudomonas aeruginosa (from UniProt Q9HV55 1-840)
